Data on one molecule can be found in patent EP1060742A1, “INTERSTITIAL ADENOSINE LEVEL-ELEVATING AGENTS” (priority 1998, dated 1999).

For the data set, the system named is normal healthy golden hamsters (F1B strain). Format: in vivo, hamster. On the procedure: Male cardiomyopathic Syrian hamsters (Bio 14.6 strain) aged 7 weeks were used. Male aged-matched normal healthy golden hamsters (F1B strain) were used as control animals. These hamsters were purchased from Biobreeders Inc. Throughout the test period, the animals were housed in stainless steel cage in a temperature (23 ± 1C° )controlled room where a daily light-dark cycle was maintained artificially at 12 hours intervals. The animals were fed with commercially available pellet (CE-2, CLEA Japan, Inc.) and provided adde libitum with feed pellets and water. […]
Body weight was recorded on every Monday and Thursday after the administration of the test compound. […]
Blood samples were collected before administration of the test compound, and 45 and 88 days after administration. […] Blood plasma was separated from the samples and plasma norepinephrine (NE) levels were measured using a catecholamine assay system.
Myocardial tissue preparations were prepared 88 days after the administration was started. […] Weight of the hearts was measured and the hearts were fixed in a 10% buffered neutral formaldehyde solution. […] The preparations of the hearts so prepared were measured in area for regions of cardiac fibrosis, mineral deposition, myocardial necrosis, and macrophage infiltration, using an image analyzing system (Mac SCOPE Ver.2.1, Mitsuya Shoji). […]

Each structure is given as a SMILES string.

Consider `COC(=O)C12C(O)C(C(=O)Cc3ccccn3)=NN1C(c1ccccc1)C=CC2c1ccccc1` (centres unmarked) [compound No.1, 2,5-diphenyl-7-hydroxy-6-methoxycarbonyl-8-(2-pyridyl)acetyl-1,9-diazabicyclo[4.3.0]-nona-3,8-dien], for which the “plasma NE level” value (88 days after administration) was “had no effect”. In addition, the relative heart weight entry (day 88, oral) is “did not affect”.
